At least one compound was matched to its structure with a doubt left.
System: D-lactate dehydrogenase
Assay: Isotopic exchange assay using D-lactate dehydrogenase: specificity
Type: biochemical
Settings: enzyme from Lactobacillus plantarum
Protocol: D-lactate and pyruvate in plasma are determined using D-lactate dehydrogenase from Lactobacillus leichmannii (Sigma or Boehringer-Mannheimbiochemicals) obtained by the procedure of Brandt, R. B. "Methods in Enzymology", vol. 89, page 35 (Academic Press, New York, 1982), pages 35-40 of which are incorporated herein by reference. The assay will detect D-lactate concentrations in plasma from 0.006 to 1.2 mM and at higher concentrations in food or microbiological samples. If the enzyme is from Lactobacillus plantarum obtained according to Dennis, D.; Kaplan, N. O. J. Bio.

With `CCC(=O)C(=O)O` [2-oxobutyrate] the “rate of reaction relative to pyruvate” value was 25%.
